Measured values: paper PMC4227754
Results are given in words; binding and its absence hold for the method and conditions named. Binding seen in cells or lysates may run through a third protein. Binding calls can cover weak binding; strength is not graded here.

Target: T1, KH-type splicing regulatory protein (KSRP) (human (endogenous in DLD-1)) (UniProt Q92945)
T1 sequence: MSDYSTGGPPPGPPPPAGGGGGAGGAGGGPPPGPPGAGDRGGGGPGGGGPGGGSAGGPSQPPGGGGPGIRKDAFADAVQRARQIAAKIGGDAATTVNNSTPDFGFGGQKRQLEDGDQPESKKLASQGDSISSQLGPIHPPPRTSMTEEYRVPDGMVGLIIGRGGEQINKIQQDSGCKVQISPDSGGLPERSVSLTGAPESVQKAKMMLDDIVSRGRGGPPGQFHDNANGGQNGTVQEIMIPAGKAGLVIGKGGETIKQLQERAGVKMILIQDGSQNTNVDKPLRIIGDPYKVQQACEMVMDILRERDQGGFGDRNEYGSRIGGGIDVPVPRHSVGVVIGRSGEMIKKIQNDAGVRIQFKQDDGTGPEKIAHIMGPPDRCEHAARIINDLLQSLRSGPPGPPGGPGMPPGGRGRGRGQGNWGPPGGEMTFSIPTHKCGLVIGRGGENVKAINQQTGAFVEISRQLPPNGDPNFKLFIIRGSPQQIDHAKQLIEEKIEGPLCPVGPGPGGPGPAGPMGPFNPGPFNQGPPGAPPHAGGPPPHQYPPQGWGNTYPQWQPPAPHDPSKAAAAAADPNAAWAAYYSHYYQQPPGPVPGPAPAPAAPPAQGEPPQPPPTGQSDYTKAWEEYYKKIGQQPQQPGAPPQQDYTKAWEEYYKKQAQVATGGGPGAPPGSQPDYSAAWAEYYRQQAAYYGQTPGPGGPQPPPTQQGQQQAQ
Assay: co-IP; extracts of CM-treated DLD-1 cells incubated with or without resveratrol; extracts digested with RNase A and RNase T1, pre-cleared, incubated with a polyclonal KSRP antibody overnight at 4°C in RIPA buffer, captured on protein A/G-agarose; western blot for PM-Scl

binding: binds
Substance: exosomal component PM-Scl (human (endogenous in DLD-1))
